Reference: PubChem BioAssay AID1259308 (NCATS, 2017)
This is an unselected part of about 59,000 deposited reagents. Over the whole deposit, about 1,510 (2.6%) got an active call. 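Calls use total luciferase alone and ignore viability, so some active siRNAs may act by altering cell number.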 The numbers tell different reagents against one gene apart. Not all columns of the deposit are shown.

- Purpose: 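Knock-downs that increase output of a recombinant reporter protein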 (primary screen)
- Cell system: human HEK293 embryonic kidney cells stably expressing firefly luciferase (HEK-CMV-Luc2-Hygro)
- Reagent: single siRNA against human genes, 0.8 pmol siRNA per well
- Time to read-out: 72 h
- Detection: 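Luciferase light (ONE-Glo) measured on one replicate plate set and viability (CellTiter-Glo) on the other, scaled to a negative control siRNA, with robust z-scores and luciferase per cell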
- Reading the numbers: total luciferase, z-score: higher = more reporter protein produced
- Active means: 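Active when the median/MAD z-score for overall luciferase is greater than 3; a gene was taken forward for validation with new siRNAs if at least two of its three siRNAs passed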
- Meaning of the calls: active = raised luciferase; inactive = no rise

total luciferase, z-score, by target gene and reagent
RP9: #1 -0.52 inactive; #2 0.173 inactive; #3 -1.48 inactive
ZNF439: #1 0.79 inactive; #2 0.305 inactive; #3 0.262 inactive
ETV3: #1 -0.302 inactive; #2 -0.018 inactive; #3 -1.53 inactive
EEF1D: #1 -0.267 inactive; #2 3.45 active; #3 -0.279 inactive
DIS3: #1 -0.0256 inactive; #2 0.284 inactive; #3 0.39 inactive

Reformatted: results already given
ETV3 #2 → total luciferase, z-score: -0.018; outcome: inactive
ETV3 #3 → total luciferase, z-score: -1.53; outcome: inactive

More results follow:
total luciferase, z-score, by target gene and reagent
GPRASP1: #1 -0.877 inactive; #2 0.748 inactive; #3 0.329 inactive
LRRC59: #1 0.519 inactive; #2 0.805 inactive; #3 0.37 inactive
TRIM8: #1 2.9 inactive; #2 0.314 inactive; #3 0.899 inactive
